# PubChem BioAssay AID1159598 – NIAID, 2016
# Assay: 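Knock-downs that alter flagellin-driven TNF reporter signal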
# Cell system: human THP-1 B5 reporter cells made macrophage-like with PMA
# Knock-down reagent: single siRNA against human genes
# Timing: reporter read 48 to 72 hours after siRNA transfection
# Conditions: flagellin stimulation for 4 hours, dose not given
# Detection: 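Firefly to renilla ratio from a TNF promoter reporter after 4 h flagellin, as robust z against negative controls averaged across replicates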
# Scale: TNF reporter z-score: higher = stronger TNF promoter activity than controls
# Rule for the call: 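a row is called active when its replicate-mean z lies at or beyond 1.5 in either direction, so raised and lowered signal both count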
# Meaning of the calls: active = reporter shifted beyond 1.5 z, up or down; inactive = reporter within 1.5 z of controls
# Shown is one part, drawn at random, of 756 reagents tested. 142 of them (19%) were called active. 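Active includes both higher and lower reporter signal; each gene has six separate siRNAs, and no gene-level summary is deposited.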 The numbers tell different reagents against one gene apart. Not given: the amount of reagent.
target gene,reagent,TNF reporter z-score,Call
ARF6,1,0.857,inactive
ARF6,2,-0.213,inactive
ARF6,3,0.00836,inactive
ARF6,4,-1.08,inactive
ARF6,5,0.523,inactive
ARF6,6,0.512,inactive
UBE2N,1,0.142,inactive
UBE2N,2,-0.786,inactive
UBE2N,3,1.51,active
UBE2N,4,-1.9,active
UBE2N,5,-0.357,inactive
UBE2N,6,0.515,inactive
MAPK12,1,0.164,inactive
MAPK12,2,-0.588,inactive
MAPK12,3,-0.436,inactive
MAPK12,4,-1.65,active
MAPK12,5,1.17,inactive
MAPK12,6,-1.04,inactive
TOLLIP,1,-1.34,inactive
TOLLIP,2,-0.789,inactive
TOLLIP,3,0.814,inactive
TOLLIP,4,-2.4,active
TOLLIP,5,0.0982,inactive
TOLLIP,6,0.522,inactive
JUN,1,-1.84,active
JUN,2,-0.978,inactive
JUN,3,-0.664,inactive
JUN,4,-1.03,inactive
JUN,5,0.00181,inactive
JUN,6,-0.791,inactive
DUSP1,1,-0.138,inactive
DUSP1,2,-0.248,inactive
DUSP1,3,-0.0107,inactive
DUSP1,4,1.18,inactive
DUSP1,5,-0.432,inactive
DUSP1,6,-0.0658,inactive
CASP8,1,0.404,inactive
CASP8,2,-0.644,inactive
CASP8,3,-0.121,inactive
CASP8,4,-0.424,inactive
CASP8,5,-0.0022,inactive
CASP8,6,-1.24,inactive
TLR8,1,-0.412,inactive
TLR8,2,0.547,inactive
TLR8,3,-0.838,inactive
TLR8,4,-1.39,inactive
TLR8,5,0.236,inactive
TLR8,6,-0.235,inactive
ITGAM,1,2.09,active
ITGAM,2,-0.931,inactive
ITGAM,3,-1.16,inactive
ITGAM,4,-0.903,inactive
ITGAM,5,-0.242,inactive
ITGAM,6,0.958,inactive
EGR1,1,-1.97,active
EGR1,2,-2.32,active
EGR1,3,-3,active
EGR1,4,-0.997,inactive
EGR1,5,-0.374,inactive
EGR1,6,-0.734,inactive
TICAM1,1,-0.763,inactive
TICAM1,2,-1.01,inactive
TICAM1,3,-0.376,inactive
TICAM1,4,-1.59,active
TICAM1,5,-0.944,inactive
TICAM1,6,-0.629,inactive
IRF3,1,0.618,inactive
IRF3,2,-0.402,inactive
IRF3,3,-1.83,active
IRF3,4,-0.404,inactive
IRF3,5,-0.669,inactive
IRF3,6,-1.01,inactive
SIGIRR,1,0.182,inactive
SIGIRR,2,0.0576,inactive
SIGIRR,3,-0.158,inactive
SIGIRR,4,0.196,inactive
SIGIRR,5,1.35,inactive
SIGIRR,6,-0.594,inactive
CREBBP,1,2.23,active
CREBBP,2,0.057,inactive
CREBBP,3,0.13,inactive
CREBBP,4,0.238,inactive
CREBBP,5,0.027,inactive
CREBBP,6,-0.694,inactive
TBK1,1,-1.68,active
TBK1,2,-1.3,inactive
TBK1,3,1.3,inactive
TBK1,4,0.389,inactive
TBK1,5,-0.6,inactive
TBK1,6,-0.528,inactive
PTK2B,1,-0.861,inactive
PTK2B,2,-1.92,active
PTK2B,3,-0.837,inactive
PTK2B,4,-1.57,active
PTK2B,5,-0.82,inactive
PTK2B,6,-0.926,inactive
TNFAIP3,1,-2.37,active
TNFAIP3,2,-1.22,inactive
TNFAIP3,3,-2.94,active
TNFAIP3,4,-1.4,inactive
TNFAIP3,5,0.478,inactive
TNFAIP3,6,-2.17,active
ATF2,1,-1.8,active
ATF2,2,0.0901,inactive
ATF2,3,-0.485,inactive
ATF2,4,0.179,inactive
ATF2,5,-0.243,inactive
ATF2,6,-2.17,active
DAB2IP,1,-0.6,inactive
DAB2IP,2,-0.239,inactive
DAB2IP,3,1.32,inactive
DAB2IP,4,-1.23,inactive
DAB2IP,5,-0.814,inactive
DAB2IP,6,-0.51,inactive

Entries above whose gene name begins with E or e (6):
target gene,reagent,TNF reporter z-score,Call
EGR1,1,-1.97,active
EGR1,2,-2.32,active
EGR1,3,-3,active
EGR1,4,-0.997,inactive
EGR1,5,-0.374,inactive
EGR1,6,-0.734,inactive
